Read-outs that look alike come from different tables or passages of the source.
Key:
CYP1A2 = CYP1A2 (Homo sapiens, UniProt P05177); settings: in humans; cited from earlier work
clinical = settings: both, human, in vivo, po, healthy subjects
[1] = ALS patients; for increase of riluzole plasma levels by CK-2017357: across all dose levels of CK-2017357 (125, 250, 375 mg daily), riluzole 50 mg daily
[2] = ALS patients; for riluzole AUC24 h, CK357 = 0 mg: riluzole 50 mg b.i.d. + CK-2017357 placebo; for riluzole AUC24 h, CK357 = 250 mg: riluzole 50 mg b.i.d. + single dose CK-2017357 250 mg; for riluzole AUC24 h, CK357 = 500 mg: riluzole 50 mg b.i.d. + single dose CK-2017357 500 mg

The chains behind the UniProt entries cited, without tags or fusion partners.
UniProt P05177, whole entry: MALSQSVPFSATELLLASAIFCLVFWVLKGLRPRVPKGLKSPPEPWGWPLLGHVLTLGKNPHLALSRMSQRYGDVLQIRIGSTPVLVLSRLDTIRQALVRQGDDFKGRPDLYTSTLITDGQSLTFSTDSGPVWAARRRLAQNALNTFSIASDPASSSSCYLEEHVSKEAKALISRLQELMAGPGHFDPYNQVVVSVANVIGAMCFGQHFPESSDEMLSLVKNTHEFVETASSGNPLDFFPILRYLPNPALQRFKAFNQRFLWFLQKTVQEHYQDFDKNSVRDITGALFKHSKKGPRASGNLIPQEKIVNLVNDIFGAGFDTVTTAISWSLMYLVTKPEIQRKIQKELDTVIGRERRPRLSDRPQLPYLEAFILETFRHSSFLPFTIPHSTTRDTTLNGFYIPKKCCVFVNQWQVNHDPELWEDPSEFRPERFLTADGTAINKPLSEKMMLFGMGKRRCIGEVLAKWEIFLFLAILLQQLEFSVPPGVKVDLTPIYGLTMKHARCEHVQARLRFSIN

Nc1nc2ccc(OC(F)(F)F)cc2s1 [riluzole]
primary metabolizing enzyme (CYP1A2): primarily metabolized by CYP1A2 | Tmax (clinical; 50 mg, Mean, riluzole 50 mg single oral dose alone (Period 1)): 1.1 h | Tmax (clinical; 50 mg, Median, riluzole 50 mg single oral dose alone (Period 1)): 1.3 h | Tmax (clinical; Mean, riluzole 50 mg single oral dose + steady-state CK-2017357 250 mg QD (Period 2)): 1.2 h | Tmax (clinical; Median, riluzole 50 mg single oral dose + steady-state CK-2017357 250 mg QD (Period 2)): 1 h | increase of riluzole plasma levels by CK-2017357 [1]: approximately doubled | increase of riluzole plasma levels by CK-2017357 ([1]; listed as Riluzole): approximately 2 fold | adverse events attributable to higher riluzole levels ([1]; riluzole dose reduced to 50 mg daily, with CK-2017357): no adverse events were reported | riluzole AUC24 h, CK357 = 0 mg ([2]; Max): 4841.83 ng·h/mL | riluzole AUC24 h, CK357 = 250 mg ([2]; Max): 7371.82 ng·h/mL | riluzole AUC24 h, CK357 = 500 mg ([2]; Max): 9116.2 ng·h/mL | riluzole AUC24 h, CK357 = 0 mg ([2]; Min): 307.49 ng·h/mL | riluzole AUC24 h, CK357 = 250 mg ([2]; Min): 887.4 ng·h/mL | riluzole AUC24 h, CK357 = 500 mg ([2]; Min): 830.83 ng·h/mL | change of mean riluzole Cmax ([2]; in the presence of CK-2017357, riluzole 50 mg BID, FIG. 3): roughly doubled

— patent publication US10272082B2, “Combination ALS therapy” (Cytokinetics, Inc., priority 2011, dated 2019)
